{"sequences": {"note": "Chains of the proteins cited; added tags and fusions are not shown. Residues count along the entry.", "UniProt P17427, residues 695-938": "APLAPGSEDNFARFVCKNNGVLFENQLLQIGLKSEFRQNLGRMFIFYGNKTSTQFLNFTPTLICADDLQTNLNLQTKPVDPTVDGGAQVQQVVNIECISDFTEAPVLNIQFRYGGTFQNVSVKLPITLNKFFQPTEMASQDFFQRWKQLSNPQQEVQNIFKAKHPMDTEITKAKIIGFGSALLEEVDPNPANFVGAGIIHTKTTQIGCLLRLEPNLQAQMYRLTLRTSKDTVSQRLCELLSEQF"}, "source": "paper PMC9054013", "about": "“FCHO controls AP2’s initiating role in endocytosis through a PtdIns(4,5)P2-dependent switch” (Science Advances, 2022)", "molecular_target": "AP2 α-appendage (residues 695 to 938) (UniProt P17427)", "assay": "ITC; α-appendage or β2-appendage with C block peptides; 100 mM tris pH 7.4, 150 mM NaCl, 0.25 mM TCEP; 12°C; peptides 1 to 5 mM titrated; both purified", "note": "These are yes or no findings as the source states them, for the method shown."}
{"binder": "QSEEQVSKNLFGPPAAAAFDHED (peptide, UniProt O14526 426-448)", "note": "[FCHO1 C peptide, LES to AAA]", "values": [{"measurement": "binding", "value": "no binding (tested: weaker than 500 μM KD)"}]}
